The assay deals with T1, LATS1 (human (endogenous in HCC cells)) (UniProt O95835).
T1 sequence: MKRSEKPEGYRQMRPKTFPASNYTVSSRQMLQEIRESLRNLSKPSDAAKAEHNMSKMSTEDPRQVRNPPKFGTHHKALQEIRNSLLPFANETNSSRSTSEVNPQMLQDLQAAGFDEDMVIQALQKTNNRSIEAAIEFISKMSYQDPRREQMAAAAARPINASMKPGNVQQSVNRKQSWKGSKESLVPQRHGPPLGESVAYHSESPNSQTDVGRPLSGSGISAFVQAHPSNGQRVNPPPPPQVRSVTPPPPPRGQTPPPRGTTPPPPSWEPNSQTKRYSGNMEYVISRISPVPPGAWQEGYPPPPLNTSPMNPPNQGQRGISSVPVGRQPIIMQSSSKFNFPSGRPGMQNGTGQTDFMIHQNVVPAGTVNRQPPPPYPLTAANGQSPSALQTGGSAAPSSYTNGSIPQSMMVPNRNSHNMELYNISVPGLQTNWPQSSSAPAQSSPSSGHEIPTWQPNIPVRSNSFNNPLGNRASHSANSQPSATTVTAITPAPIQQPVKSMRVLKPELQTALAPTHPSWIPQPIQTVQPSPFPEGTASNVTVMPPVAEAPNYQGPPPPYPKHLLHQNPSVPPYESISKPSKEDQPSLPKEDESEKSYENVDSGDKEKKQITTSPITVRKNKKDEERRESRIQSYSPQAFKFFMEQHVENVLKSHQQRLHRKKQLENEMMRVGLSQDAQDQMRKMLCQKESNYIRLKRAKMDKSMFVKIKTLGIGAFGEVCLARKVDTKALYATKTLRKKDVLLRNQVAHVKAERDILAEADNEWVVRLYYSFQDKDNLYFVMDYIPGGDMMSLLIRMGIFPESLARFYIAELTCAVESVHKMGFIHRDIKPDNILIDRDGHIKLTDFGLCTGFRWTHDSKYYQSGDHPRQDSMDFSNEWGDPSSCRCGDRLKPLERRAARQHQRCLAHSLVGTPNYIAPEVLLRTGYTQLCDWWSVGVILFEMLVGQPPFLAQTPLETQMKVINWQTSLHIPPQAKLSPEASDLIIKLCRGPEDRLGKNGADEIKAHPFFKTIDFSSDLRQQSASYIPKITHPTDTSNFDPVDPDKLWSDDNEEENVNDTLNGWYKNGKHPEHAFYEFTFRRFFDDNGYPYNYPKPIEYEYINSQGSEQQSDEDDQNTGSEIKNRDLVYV
As to the kind of experiment: co-IP; endogenous proteins in HCC cells; lysates immunoprecipitated with anti-LATS1 or anti-CUL4A antibody on protein A/G beads overnight at 4 °C, eluted proteins detected by Western blotting. On the technique in general: Immunoblotting shows a protein as a band on a membrane.

By UniProt entry, the sequences of proteins in these tests, tags left out.
UniProt Q13619: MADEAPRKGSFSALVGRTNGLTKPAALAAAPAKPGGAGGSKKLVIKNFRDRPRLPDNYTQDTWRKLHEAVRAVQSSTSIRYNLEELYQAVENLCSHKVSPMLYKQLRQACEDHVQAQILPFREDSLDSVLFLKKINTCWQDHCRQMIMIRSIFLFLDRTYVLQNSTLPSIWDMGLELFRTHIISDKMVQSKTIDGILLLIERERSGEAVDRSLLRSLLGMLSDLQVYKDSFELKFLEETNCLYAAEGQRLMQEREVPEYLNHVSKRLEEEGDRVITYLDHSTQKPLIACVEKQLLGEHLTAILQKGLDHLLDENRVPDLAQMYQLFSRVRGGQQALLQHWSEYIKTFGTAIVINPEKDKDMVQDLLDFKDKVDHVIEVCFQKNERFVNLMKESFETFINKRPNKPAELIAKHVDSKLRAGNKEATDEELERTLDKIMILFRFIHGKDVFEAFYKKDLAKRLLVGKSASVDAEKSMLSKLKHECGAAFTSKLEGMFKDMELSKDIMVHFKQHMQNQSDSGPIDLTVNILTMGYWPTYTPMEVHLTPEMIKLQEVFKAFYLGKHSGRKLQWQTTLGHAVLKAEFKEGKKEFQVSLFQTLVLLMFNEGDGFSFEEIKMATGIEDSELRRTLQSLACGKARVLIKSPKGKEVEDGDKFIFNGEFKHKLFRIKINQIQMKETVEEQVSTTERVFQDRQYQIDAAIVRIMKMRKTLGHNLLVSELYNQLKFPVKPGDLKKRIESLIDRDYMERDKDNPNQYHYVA

No constants are given. Whether binding was seen depends on the method and setting. In cells and extracts the contact can be indirect. Some entries that bind do so weakly or less than the wild type.

Regarding CUL4A (from UniProt Q13619 1-759), the binding result was “binds”.
